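Malaria parasite (P. falciparum) lines kept in red blood cells; parasite DNA is measured by SYBR Green fluorescence after lysis, 72 h after compound addition. Each compound was titrated across a series from about 0.000037 to 29 µM. The number is the fitted AC50, the concentration giving a half-maximal change in signal; a lower value means higher potency, whether the curve shows a decrease or an increase. Calls follow the curve class and fit quality: every row here is inconclusive, covering signal-raising curves and weak, poorly fitted, partial or highest-dose-only inhibition curves.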

Values are in µM. Every entry below has the call inconclusive. Only part of the assay is shown, chiefly results filed as inconclusive. Potencies fitted to partial, single-point or poorly fitting curves are rough.

compound	condition	fitted potency (µM)	remark
CN1CCc2cccc3c2[C@H]1Cc1ccc(O)c(O)c1-3	TAB113	10	inhibitor, single point
Cc1cccc([C@H](C)c2cnc[nH]2)c1C	CP268	10.69	inhibitor, partial curve, poor fit
Cc1cccc([C@H](C)c2cnc[nH]2)c1C	CP335	6.746	inhibitor, partial curve
Cc1cccc([C@H](C)c2cnc[nH]2)c1C	CP194	9.528	inhibitor, partial curve
Cc1cccc([C@H](C)c2cnc[nH]2)c1C	CP305	6.746	inhibitor, partial curve
Cc1cccc([C@H](C)c2cnc[nH]2)c1C	SC27B	7.08	inhibitor, partial curve, poor fit
Cc1cccc([C@H](C)c2cnc[nH]2)c1C	ATS95	12.59	inhibitor, single point
Cc1cccc([C@H](C)c2cnc[nH]2)c1C	CP201	5.358	inhibitor, partial curve
Cc1cccc([C@H](C)c2cnc[nH]2)c1C	CP265	10	inhibitor, single point
Cc1cccc([C@H](C)c2cnc[nH]2)c1C	DIV14	6.746	inhibitor, partial curve
Cc1cccc([C@H](C)c2cnc[nH]2)c1C	CP211	8.492	inhibitor, partial curve
Cc1cccc([C@H](C)c2cnc[nH]2)c1C	CP329	12	inhibitor, partial curve
Cc1cccc([C@H](C)c2cnc[nH]2)c1C	DIV17	6.012	inhibitor, partial curve
Cc1cccc([C@H](C)c2cnc[nH]2)c1C	PAD	17.78	inhibitor, single point
Cc1cccc([C@H](C)c2cnc[nH]2)c1C	CP247	10	inhibitor, single point
Cc1cccc([C@H](C)c2cnc[nH]2)c1C	CP325	15.1	inhibitor, single point
Cc1cccc([C@H](C)c2cnc[nH]2)c1C	P93_24	11.22	inhibitor, single point
Cc1cccc([C@H](C)c2cnc[nH]2)c1C	CP286	10	inhibitor, partial curve
Cc1cccc([C@H](C)c2cnc[nH]2)c1C	PC26	7.569	inhibitor, partial curve
Cc1cccc([C@H](C)c2cnc[nH]2)c1C	AA1029	7.08	inhibitor, partial curve
Cc1cccc([C@H](C)c2cnc[nH]2)c1C	DFO2036	6.31	inhibitor, partial curve, poor fit
Cc1cccc([C@H](C)c2cnc[nH]2)c1C	CP266	0.2133	inhibitor, full curve, poor fit
Cc1cccc([C@H](C)c2cnc[nH]2)c1C	ECU	10	inhibitor, partial curve
Cc1cccc([C@H](C)c2cnc[nH]2)c1C	CP252	10	inhibitor, single point
Cc1cccc([C@H](C)c2cnc[nH]2)c1C	N140	12.59	inhibitor, single point
Cc1cccc([C@H](C)c2cnc[nH]2)c1C	CP185	7.943	inhibitor, partial curve
Cc1cccc([C@H](C)c2cnc[nH]2)c1C	CP260	10	inhibitor, single point
Cc1cccc([C@H](C)c2cnc[nH]2)c1C	CP238	11.22	inhibitor, single point
Cc1cccc([C@H](C)c2cnc[nH]2)c1C	CP215	12	inhibitor, partial curve
Cc1cccc([C@H](C)c2cnc[nH]2)c1C	CP291	13.46	inhibitor, single point
Cc1cccc([C@H](C)c2cnc[nH]2)c1C	CP203	12	inhibitor, single point
Cc1cccc([C@H](C)c2cnc[nH]2)c1C	P94_40	11.22	inhibitor, single point
Cc1cccc([C@H](C)c2cnc[nH]2)c1C	CP250	7.943	inhibitor, partial curve
Cc1cccc([C@H](C)c2cnc[nH]2)c1C	CP217	6.31	inhibitor, partial curve
Cc1cccc([C@H](C)c2cnc[nH]2)c1C	HB3	12.59	inhibitor, single point
Cc1cccc([C@H](C)c2cnc[nH]2)c1C	DIV30	19.01	inhibitor, single point
Cc1cccc([C@H](C)c2cnc[nH]2)c1C	TAB109	10	inhibitor, single point
Cc1cccc([C@H](C)c2cnc[nH]2)c1C	PC15	8.912	inhibitor, partial curve
Cc1cccc([C@H](C)c2cnc[nH]2)c1C	ATS189	6.31	inhibitor, partial curve
Cc1cccc([C@H](C)c2cnc[nH]2)c1C	FAB9	11.22	inhibitor, single point
C[S+](CC[C@H](N)C(=O)O)C[C@H]1O[C@@H](n2cnc3c(N)ncnc32)[C@H](O)[C@@H]1O (stereo not given in full)	TAB113	3.981	inhibitor, single point
C[S+](CC[C@H](N)C(=O)O)C[C@H]1O[C@@H](n2cnc3c(N)ncnc32)[C@H](O)[C@@H]1O (stereo not given in full)	ATS189	2.239	inhibitor, single point
C[S+](CC[C@H](N)C(=O)O)C[C@H]1O[C@@H](n2cnc3c(N)ncnc32)[C@H](O)[C@@H]1O (stereo not given in full)	TAB109	3.981	inhibitor, single point
C[S+](CC[C@H](N)C(=O)O)C[C@H]1O[C@@H](n2cnc3c(N)ncnc32)[C@H](O)[C@@H]1O (stereo not given in full)	ECU	2.512	inhibitor, single point
C[S+](CC[C@H](N)C(=O)O)C[C@H]1O[C@@H](n2cnc3c(N)ncnc32)[C@H](O)[C@@H]1O (stereo not given in full)	CP191	3.548	inhibitor, single point
C[S+](CC[C@H](N)C(=O)O)C[C@H]1O[C@@H](n2cnc3c(N)ncnc32)[C@H](O)[C@@H]1O (stereo not given in full)	CP266	1.901	inhibitor, partial curve, poor fit
C[S+](CC[C@H](N)C(=O)O)C[C@H]1O[C@@H](n2cnc3c(N)ncnc32)[C@H](O)[C@@H]1O (stereo not given in full)	CP256	1.259	inhibitor, single point
C[S+](CC[C@H](N)C(=O)O)C[C@H]1O[C@@H](n2cnc3c(N)ncnc32)[C@H](O)[C@@H]1O (stereo not given in full)	CP265	3.981	inhibitor, single point
C[S+](CC[C@H](N)C(=O)O)C[C@H]1O[C@@H](n2cnc3c(N)ncnc32)[C@H](O)[C@@H]1O (stereo not given in full)	DFO2036	2.512	inhibitor, single point
C[S+](CC[C@H](N)C(=O)O)C[C@H]1O[C@@H](n2cnc3c(N)ncnc32)[C@H](O)[C@@H]1O (stereo not given in full)	CP217	3.548	inhibitor, single point
C[S+](CC[C@H](N)C(=O)O)C[C@H]1O[C@@H](n2cnc3c(N)ncnc32)[C@H](O)[C@@H]1O (stereo not given in full)	CP185	3.548	inhibitor, single point
C[S+](CC[C@H](N)C(=O)O)C[C@H]1O[C@@H](n2cnc3c(N)ncnc32)[C@H](O)[C@@H]1O (stereo not given in full)	CP238	1.995	inhibitor, single point

Some entries from above, unchanged:

With Cc1cccc([C@H](C)c2cnc[nH]2)c1C [DFO2036] the assay gave fitted potency 6.31 µM (inhibitor, partial curve, poor fit).
With Cc1cccc([C@H](C)c2cnc[nH]2)c1C [CP194] the assay gave fitted potency 9.528 µM (inhibitor, partial curve).
With Cc1cccc([C@H](C)c2cnc[nH]2)c1C [CP265] the assay gave fitted potency 10 µM (inhibitor, single point).

From PubChem BioAssay record AID504749 (NCATS, 2011).